Values from PubChem BioAssay AID686937 (Drosophila RNAi Screening Center, 2013)
The screen tested about 23,000 reagents; shown is an unselected part of those that have a named target and a result. 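Reduced-secretion tags in replicate 1 do not always agree with the z-scores; no criterion for assigning the tags was given.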 Names joined by + are all predicted targets of the reagent. Not all columns of the deposit are shown. Not stated in the record: the amount of reagent.

Assay: 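Genes whose loss weakens secretory pathway function in fly cells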 (primary screen)
Cells: Drosophila S2 cells expressing secreted horseradish peroxidase
Reagents: long dsRNA against Drosophila genes
Duration: about 5.5 days (5 days dsRNA, then 12 h reporter induction)
Treatment: reporter expression induced after 5 days of dsRNA, read 12 h later; inducer not stated
Detection: 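Chemiluminescent measurement of peroxidase in the medium 12 h after reporter induction, following 5 days of dsRNA, given as a z-score per plate; higher means more secretion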
Direction: z-score: higher = more reporter secreted into medium

Target gene	DRSC id	z-score, replicate 1	z-score, replicate 2	z-score, replicate 3	z-score, replicate 4
p115	DRSC18813	-0.6	-0.56		
Tsp	DRSC02144	0.26	0.27		
Tsp	DRSC02145	0.05	-0.01		
CG7214	DRSC03028	-8.4	0.36	0.14	-1.03
CG7214	DRSC21869	0.19	0.78		
CG11634	DRSC03700	0.13	0.18		
CG15130	DRSC02430	0.2	0.14		
CG10516	DRSC09738	0.5	0.57		
Ir7c	DRSC18007	-0.02	-0.61		
Sugb	DRSC10815	0.1	0.39		
Klp98A	DRSC16724	0.19	0.57		
Klp98A	DRSC21834	-0.28	1.68		
CG10513	DRSC14248	-0.47	-0.28		
CG4658	DRSC02768	0.84	0.72		
CG32694	DRSC17844	0.28	0.36		
CG32694	DRSC17855	0.25	0.02		
CG32694	DRSC22670	-1.06	0.47		
Ctu1	DRSC07069	0.12	0.04		
Klc	DRSC11203	0.12	0.29		
Nos	DRSC03381	0.4	0.37		
scra	DRSC07679	-0.28	-0.22		

Continued, starting with the last 8 of the part before.
Target gene	DRSC id	z-score, replicate 1	z-score, replicate 2	z-score, replicate 3	z-score, replicate 4
CG4658	DRSC02768	0.84	0.72		
CG32694	DRSC17844	0.28	0.36		
CG32694	DRSC17855	0.25	0.02		
CG32694	DRSC22670	-1.06	0.47		
Ctu1	DRSC07069	0.12	0.04		
Klc	DRSC11203	0.12	0.29		
Nos	DRSC03381	0.4	0.37		
scra	DRSC07679	-0.28	-0.22		
Pex7	DRSC10651	0.27	0.17		
CG12362	DRSC09884	0.53	0.45		
gdl-ORF39 + gdl	DRSC11350	0.3	0.28		
CG32195	DRSC09533	0.39	0.29		
CheB42b	DRSC22878	0.58	0.82		
Clc	DRSC11116	0.33	0.26		
CG8568	DRSC20113	0.08	0.24		
CG9330	DRSC11066	0.27	-0.07		
pn	DRSC18822	0.11	0.07		
CG15040	DRSC19616	-0.86	0.39		
CG15040	DRSC21482	1.22	0.87		
ClC-c	DRSC10499	0.52	0.52		
Chmp1	DRSC10401	0.42	0.51		
Nepl6	DRSC03242	0.84	0.66		
CG15117	DRSC06539	0.44	0.33		
Tango8	DRSC06474	-3.04	-2.17	1.19	0.87
CG9514	DRSC20190	0.31	0.27		
CG9514	DRSC20191	0.38	-0.04		
Oatp58Dc	DRSC04363	0.17	0.27		
Nap1	DRSC04626	0.09	-0.09		
CG14052	DRSC17907	-0.1	-0.53		
CG14052	DRSC18192	0.53	0.56		
CG10969	DRSC09811	-0.77	-0.37		
CG34125	DRSC00850	-0.32	0.3		
Syngr	DRSC06003	-0.2	-0.17		
Nnf1a	DRSC06394	0.21	0.12		
l(3)80Fg	DRSC21645	-0.13	-0.33		
l(3)80Fg	DRSC22171	-0.41	-0.43		
CG11470	DRSC14313	-0.03	0.41		
CG18281	DRSC11742	0.24	0.33		
CG9147	DRSC03147	0.21	0.02		
CG14926	DRSC02409	0.65	0.27		
CG42534	DRSC14722	0.44	0.07		
CG42534	DRSC14759	-1.69	-1.21		
CG42534	DRSC16072	0.24	0.47		
